From patent publication US20260167728A1 (published 2026)
These are yes or no findings as the source states them, for the method shown. Some binding calls cover weakened binding; strength is not graded here.

Target: cynomolgus monkey EGFR (cynomolgus monkey)
Assay: SPR Biacore 37 C

B1: AMX-525 (bispecific antibody)
chain: ASSATPESGPGTSTEPSEGSAPGTSESATPESGPGSGPGTSESATPGTSESATPESGPGSEPATSGSETPGTSESATPESGPGTSTEPSEGSAPGSPAGSPTSTEEGTSESATPESGPGSEPATSGSETPGTSESATPESGPGSPAGSPTSTEEGSPAGSPTSTEEGTSTEPSEGSAPGTSESATPESGPGTSESATPESGPGTSESATPESGPGSEPATSGSETPGSEPATSGSETPGSPAGSPTSTEEGTSTEPSEGSAPGTSTEPSEGSAPGSEPATSGSETPGTSESATPEAGRSASHTPAGLTGPGTSESATPESDIQMTQSPSSLSASVGDRVTITCQASQDISNYLNWYQQKPGKAPKLLIYDASNLETGVPSRFSGSGSGTDFTFTISSLQPEDIATYYCQHFDHLPLAFGQGTKVEIKSESATPESGPGTSPGATPESGPGTSESATPQVQLQESGPGLVKPSETLSLTCTVSGGSVSSGDYYWTWIRQPPGKGLEWIGHIYYSGNTNYNPSLKSRVTISVDTSKNQFSLKLSSVTAADTAVYYCARDRVTGAFDIWGQGTLVTVSSGGGGSELVVTQEPSLTVSPGGTVTLTCRSSNGAVTSSNYANWVQQKPGQAPRGLIGGTNKRAPGTPARFSGSLLEGKAALTLSGVQPEDEAVYYCALWYPNLWVFGGGTKLTVLSESATPESGPGTSPGATPESGPGTSESATPEVQLVESGGGIVQPGGSLRLSCAASGFTFSTYAMNWVRQAPGKGLEWVGRIRTKRNDYATYYADSVKGRFTISRDDSKNTLYLQMNSLKTEDTAVYYCVRHENFGNSYVSWFAHWGQGTLVTVSSGTATPESGPGEAGRSASHTPAGLTGPATPESGPGTSESATPESGPGSPAGSPTSTEEGTSESATPESGPGSEPATSGSETPGTSESATPESGPGTSTEPSEGSAPGTSTEPSEGSAPGTSTEPSEGSAPGTSTEPSEGSAPGTSTEPSEGSAPGTSTEPSEGSAPGSPAGSPTSTEEGTSTEPSEGSAPGTSESATPESGPGSEPATSGSETPGTSESATPESGPGSEPATSGSETPGTSESATPESGPGTSTEPSEGSAPGTSESATPESGPGSPAGSPTSTEEGSPAGSPTSTEEGSPAGSPTSTEEGTSESATPESGPGTSTEPSEGSAPGTSESATPESGPGSEPATSGSETPGTSESATPESGPGSEPATSGSETPGTSESATPESGPGTSTEPSEGSAPGSPAGSPTSTEEGTSESATPESGPGSEPATSGSETPGTSESATPESGPGSPAGSPTSTEEGSPAGSPTSTEEGTSTEPSEGSAPGTSESATPESGPGTSESATPESGPGTSPSATPESGPGSEPATSGSETPGSEPATSGSETPGSPAGSPTSTEEGTSTEPSEGSAPGTSTEPSEGSAPGSEPATSGSETPGTSESAGEPEA
notes: Fully masked paTCE; also called AC4230; EGFR.37/CD3.318 paTCE
binding: binds

B2: AMX-525 (uTCE) (bispecific antibody)
chain: GTSESATPESDIQMTQSPSSLSASVGDRVTITCQASQDISNYLNWYQQKPGKAPKLLIYDASNLETGVPSRFSGSGSGTDFTFTISSLQPEDIATYYCQHFDHLPLAFGQGTKVEIKSESATPESGPGTSPGATPESGPGTSESATPQVQLQESGPGLVKPSETLSLTCTVSGGSVSSGDYYWTWIRQPPGKGLEWIGHIYYSGNTNYNPSLKSRVTISVDTSKNQFSLKLSSVTAADTAVYYCARDRVTGAFDIWGQGTLVTVSSGGGGSELVVTQEPSLTVSPGGTVTLTCRSSNGAVTSSNYANWVQQKPGQAPRGLIGGTNKRAPGTPARFSGSLLEGKAALTLSGVQPEDEAVYYCALWYPNLWVFGGGTKLTVLSESATPESGPGTSPGATPESGPGTSESATPEVQLVESGGGIVQPGGSLRLSCAASGFTFSTYAMNWVRQAPGKGLEWVGRIRTKRNDYATYYADSVKGRFTISRDDSKNTLYLQMNSLKTEDTAVYYCVRHENFGNSYVSWFAHWGQGTLVTVSSGTATPESGPG
notes: Fully unmasked metabolite; also called unmasked AMX-525; not shown: remnant of cleaved RSR-3213
binding: binds
